# Experimental data as given in paper PMC7658645.
# Sequences of proteins named here, by UniProt entry; tags and fusion partners are left off. A change or cut given only in a name is not applied to a line headed by its entry.
# UniProt P15927: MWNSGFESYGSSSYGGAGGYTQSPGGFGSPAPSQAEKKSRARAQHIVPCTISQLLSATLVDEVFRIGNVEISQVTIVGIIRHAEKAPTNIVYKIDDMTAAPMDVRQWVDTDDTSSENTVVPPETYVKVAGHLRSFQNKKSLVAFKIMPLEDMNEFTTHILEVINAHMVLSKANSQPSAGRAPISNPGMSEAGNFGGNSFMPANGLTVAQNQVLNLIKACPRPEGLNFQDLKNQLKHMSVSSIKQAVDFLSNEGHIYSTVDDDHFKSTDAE
# Legend:
# [1] = biological target: GST (glutathione S-transferase tag) (UniProt P08515); experiment: dot blot (nitrocellulose filter binding); settings: nanomolar affinity, value only in figure; Dot blot/aptamer blot: 20 mM Tris-HCl, 100 mM NaCl, 5 mM MgCl2, 0.1% BSA (pH not given), 50 nM aptamer in dot blot (membranes equilibrated at 4 C); recombinant protein; label: 5' Cy5.5; single-stranded DNA
# [2] = biological target: GST (glutathione S-transferase tag) (UniProt P08515); experiment: aptamer blot; settings: SDS-PAGE protein on nitrocellulose; Dot blot/aptamer blot: 20 mM Tris-HCl, 100 mM NaCl, 5 mM MgCl2, 0.1% BSA (pH not given), 50 nM aptamer in dot blot (membranes equilibrated at 4 C); recombinant protein; label: 5' Cy5.5; single-stranded DNA
# [3] = test system: GST-GFP; experiment: aptamer blot; settings: SDS-PAGE protein on nitrocellulose; Dot blot/aptamer blot: 20 mM Tris-HCl, 100 mM NaCl, 5 mM MgCl2, 0.1% BSA (pH not given), 50 nM aptamer in dot blot (membranes equilibrated at 4 C); recombinant protein; protein details: GST; label: 5' Cy5.5; single-stranded DNA
# [4] = test system: GST-TrxA; experiment: aptamer blot; settings: SDS-PAGE protein on nitrocellulose; Dot blot/aptamer blot: 20 mM Tris-HCl, 100 mM NaCl, 5 mM MgCl2, 0.1% BSA (pH not given), 50 nM aptamer in dot blot (membranes equilibrated at 4 C); recombinant protein; protein details: GST; label: 5' Cy5.5; single-stranded DNA
# [5] = biological target: MBP-RPA2 (UniProt P15927); experiment: aptamer blot; settings: SDS-PAGE protein on nitrocellulose; Dot blot/aptamer blot: 20 mM Tris-HCl, 100 mM NaCl, 5 mM MgCl2, 0.1% BSA (pH not given), 50 nM aptamer in dot blot (membranes equilibrated at 4 C); recombinant protein; protein details: MBP; label: 5' Cy5.5; single-stranded DNA
# [6] = test system: MBP-TvaF; experiment: aptamer blot; settings: SDS-PAGE protein on nitrocellulose; Dot blot/aptamer blot: 20 mM Tris-HCl, 100 mM NaCl, 5 mM MgCl2, 0.1% BSA (pH not given), 50 nM aptamer in dot blot (membranes equilibrated at 4 C); recombinant protein; protein details: MBP; label: 5' Cy5.5; single-stranded DNA
# [7] = biological target: GST (glutathione S-transferase tag) (UniProt P08515); experiment: EMSA; settings: native protein in solution, up to 16 uM; EMSA: 50 mM Tris-HCl pH 7.5, 100 mM NaCl, 5 mM MgCl2, room temperature, 1 h; recombinant protein; label: 5' Cy5.5; single-stranded DNA
# [8] = biological target: GST in crude E. coli lysate (UniProt P08515); experiment: aptamer blot; settings: IPTG-induced crude lysate, on nitrocellulose; Dot blot/aptamer blot: 20 mM Tris-HCl, 100 mM NaCl, 5 mM MgCl2, 0.1% BSA (pH not given), 50 nM aptamer in dot blot (membranes equilibrated at 4 C); protein in a lysate after overexpression; label: 5' Cy5.5; single-stranded DNA
# [9] = test system: His-GFP; experiment: aptamer blot; settings: SDS-PAGE protein on nitrocellulose; Dot blot/aptamer blot: 20 mM Tris-HCl, 100 mM NaCl, 5 mM MgCl2, 0.1% BSA (pH not given), 50 nM aptamer in dot blot (membranes equilibrated at 4 C); recombinant protein; protein details: His; label: 5' Cy5.5; single-stranded DNA
# [10] = biological target: His-TrxA (His-tagged thioredoxin 1) (UniProt P0AA25); experiment: EMSA; settings: native protein in solution, complex only at highest concentration (16 uM); EMSA: 50 mM Tris-HCl pH 7.5, 100 mM NaCl, 5 mM MgCl2, room temperature, 1 h; recombinant protein; protein details: His; label: 5' Cy5.5; single-stranded DNA
# [11] = biological target: His-TrxA (His-tagged thioredoxin 1) (UniProt P0AA25); experiment: aptamer blot; settings: SDS-PAGE protein on nitrocellulose; Dot blot/aptamer blot: 20 mM Tris-HCl, 100 mM NaCl, 5 mM MgCl2, 0.1% BSA (pH not given), 50 nM aptamer in dot blot (membranes equilibrated at 4 C); recombinant protein; protein details: His; label: 5' Cy5.5; single-stranded DNA
# [12] = biological target: His-TrxA (His-tagged thioredoxin 1) (UniProt P0AA25); experiment: dot blot (nitrocellulose filter binding); settings: nanomolar affinity, value only in figure; Dot blot/aptamer blot: 20 mM Tris-HCl, 100 mM NaCl, 5 mM MgCl2, 0.1% BSA (pH not given), 50 nM aptamer in dot blot (membranes equilibrated at 4 C); recombinant protein; protein details: His; label: 5' Cy5.5; single-stranded DNA
sequence,measurement,setting,value
ATACGACTCACTATTAGGGAGGAATAGGCGAACTAACAACGATTGTGTATTCCTCACAATGCTAGACTACTGACTAC [G2],binding result,[1],binds
same,binding result,[2],binds
same,binding result,[3],binds
same,binding result,[4],binds
ATACGACTCACTATTAGGGACCACATAAACATGCATCGCTCAATAACGGGATATTGTTGTGCTAGACTACTGACTACAA [M1],binding result,[5],binds
same,binding result,[6],binds
ATACGACTCACTATTAGGGACAAAGCTGACAACCCTTTCATAATCTAACTACATTTATGTGCTAGACTACTGACTAC [G1],binding result,[7],no binding
same,binding result,[2],binds
same,binding result,[8],binds
same,binding result,[9],no binding
ATACGACTCACTATTAGGGATGTCCACCATATAGATCGATTTAAGTCCCTCGTTATTAATGCTAGACTACTGACTACAA [H1],binding result,[10],binds more weakly
same,binding result,[11],binds
ATACGACTCACTATTAGGGTGCGACGGGTCACTCAAATAGTCACTCATGCTTCTAAGATTGCTAGACTACTGACTACAA [H2],binding result,[12],binds
same,binding result,[11],binds
same,binding result,[9],binds

# Construct, isoform or probe ends are uncertain for at least one entry. For part of these data: No signal at the amounts used counts as a negative. For part of these data: The comparison behind a weaker result is the experiment's own reference, which may not be listed here. For part of these data: Where cells or extracts were used, other partners may take part.
